Laboratory results taken from the supplement of paper PMC10849652.
This is one part of the list.

Sequences of proteins named here, by UniProt entry; tags and fusion partners are left off. A change or cut given only in a name is not applied to a line headed by its entry.
UniProt Q9UPN7: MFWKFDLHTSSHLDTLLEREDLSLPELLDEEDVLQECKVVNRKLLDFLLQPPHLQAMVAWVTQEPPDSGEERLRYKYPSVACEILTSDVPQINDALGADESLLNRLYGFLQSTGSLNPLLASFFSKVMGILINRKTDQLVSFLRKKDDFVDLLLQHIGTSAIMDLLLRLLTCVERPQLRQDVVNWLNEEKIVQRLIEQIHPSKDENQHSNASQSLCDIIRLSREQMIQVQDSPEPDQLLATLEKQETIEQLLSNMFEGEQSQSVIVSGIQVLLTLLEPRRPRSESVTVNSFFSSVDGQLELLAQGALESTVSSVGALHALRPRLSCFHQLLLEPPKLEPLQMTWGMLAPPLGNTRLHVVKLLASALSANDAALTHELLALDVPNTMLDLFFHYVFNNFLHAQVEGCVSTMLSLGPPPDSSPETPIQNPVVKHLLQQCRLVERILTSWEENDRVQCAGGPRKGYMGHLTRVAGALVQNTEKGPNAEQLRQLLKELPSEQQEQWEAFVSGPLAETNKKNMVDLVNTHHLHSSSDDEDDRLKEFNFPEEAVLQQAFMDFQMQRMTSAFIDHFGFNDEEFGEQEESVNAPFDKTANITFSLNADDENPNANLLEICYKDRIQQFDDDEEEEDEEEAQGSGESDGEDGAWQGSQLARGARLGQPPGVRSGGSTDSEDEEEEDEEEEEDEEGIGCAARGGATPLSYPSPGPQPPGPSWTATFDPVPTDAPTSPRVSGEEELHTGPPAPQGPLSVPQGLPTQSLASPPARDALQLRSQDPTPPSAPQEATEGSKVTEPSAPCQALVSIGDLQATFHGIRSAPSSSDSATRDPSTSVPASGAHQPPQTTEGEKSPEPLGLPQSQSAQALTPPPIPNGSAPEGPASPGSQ
UniProt P10644, whole entry, looked up: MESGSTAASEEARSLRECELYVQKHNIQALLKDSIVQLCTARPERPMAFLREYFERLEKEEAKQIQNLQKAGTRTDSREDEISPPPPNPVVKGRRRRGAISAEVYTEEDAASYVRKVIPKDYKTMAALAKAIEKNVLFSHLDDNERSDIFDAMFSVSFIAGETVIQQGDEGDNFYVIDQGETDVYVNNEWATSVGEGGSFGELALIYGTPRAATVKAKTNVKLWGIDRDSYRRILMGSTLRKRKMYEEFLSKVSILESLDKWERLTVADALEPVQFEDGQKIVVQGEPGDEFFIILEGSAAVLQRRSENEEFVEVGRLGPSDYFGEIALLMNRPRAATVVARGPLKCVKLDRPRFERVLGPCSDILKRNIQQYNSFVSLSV
UniProt P62136, whole entry, looked up: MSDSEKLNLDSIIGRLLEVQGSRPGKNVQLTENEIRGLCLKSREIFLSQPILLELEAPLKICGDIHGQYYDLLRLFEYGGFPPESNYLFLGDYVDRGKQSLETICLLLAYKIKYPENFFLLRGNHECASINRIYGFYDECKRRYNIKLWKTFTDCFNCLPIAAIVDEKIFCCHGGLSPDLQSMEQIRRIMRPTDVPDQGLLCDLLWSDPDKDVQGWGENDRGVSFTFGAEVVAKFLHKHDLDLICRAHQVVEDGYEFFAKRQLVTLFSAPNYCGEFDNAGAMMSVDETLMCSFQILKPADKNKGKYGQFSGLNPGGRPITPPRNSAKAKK
UniProt Q96LW4: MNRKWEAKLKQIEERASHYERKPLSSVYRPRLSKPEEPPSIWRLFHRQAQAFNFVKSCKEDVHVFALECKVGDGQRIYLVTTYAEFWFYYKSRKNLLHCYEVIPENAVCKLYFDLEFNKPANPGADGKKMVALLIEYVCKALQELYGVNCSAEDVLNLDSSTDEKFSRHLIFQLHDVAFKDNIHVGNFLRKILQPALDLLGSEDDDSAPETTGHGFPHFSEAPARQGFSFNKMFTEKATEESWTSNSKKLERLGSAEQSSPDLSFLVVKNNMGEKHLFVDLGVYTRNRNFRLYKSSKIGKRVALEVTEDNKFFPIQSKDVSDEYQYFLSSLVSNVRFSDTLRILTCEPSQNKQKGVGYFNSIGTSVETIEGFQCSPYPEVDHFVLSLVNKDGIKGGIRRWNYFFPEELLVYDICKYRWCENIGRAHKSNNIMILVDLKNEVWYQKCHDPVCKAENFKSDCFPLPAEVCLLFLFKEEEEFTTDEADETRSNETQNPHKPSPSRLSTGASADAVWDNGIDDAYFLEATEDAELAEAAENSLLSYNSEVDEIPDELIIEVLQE
UniProt P41219, whole entry, looked up: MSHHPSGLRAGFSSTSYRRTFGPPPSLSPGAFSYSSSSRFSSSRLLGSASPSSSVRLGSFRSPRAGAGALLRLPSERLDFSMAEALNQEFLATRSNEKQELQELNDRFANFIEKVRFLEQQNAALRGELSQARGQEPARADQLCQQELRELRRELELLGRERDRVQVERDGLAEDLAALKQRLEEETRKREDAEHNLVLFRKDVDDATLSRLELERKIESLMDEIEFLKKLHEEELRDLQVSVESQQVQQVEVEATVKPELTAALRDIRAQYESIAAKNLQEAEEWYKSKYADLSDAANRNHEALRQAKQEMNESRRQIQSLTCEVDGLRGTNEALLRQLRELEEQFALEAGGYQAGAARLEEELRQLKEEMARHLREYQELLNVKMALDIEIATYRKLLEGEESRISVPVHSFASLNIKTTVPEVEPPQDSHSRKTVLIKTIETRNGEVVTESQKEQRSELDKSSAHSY
UniProt O75807, whole entry, looked up: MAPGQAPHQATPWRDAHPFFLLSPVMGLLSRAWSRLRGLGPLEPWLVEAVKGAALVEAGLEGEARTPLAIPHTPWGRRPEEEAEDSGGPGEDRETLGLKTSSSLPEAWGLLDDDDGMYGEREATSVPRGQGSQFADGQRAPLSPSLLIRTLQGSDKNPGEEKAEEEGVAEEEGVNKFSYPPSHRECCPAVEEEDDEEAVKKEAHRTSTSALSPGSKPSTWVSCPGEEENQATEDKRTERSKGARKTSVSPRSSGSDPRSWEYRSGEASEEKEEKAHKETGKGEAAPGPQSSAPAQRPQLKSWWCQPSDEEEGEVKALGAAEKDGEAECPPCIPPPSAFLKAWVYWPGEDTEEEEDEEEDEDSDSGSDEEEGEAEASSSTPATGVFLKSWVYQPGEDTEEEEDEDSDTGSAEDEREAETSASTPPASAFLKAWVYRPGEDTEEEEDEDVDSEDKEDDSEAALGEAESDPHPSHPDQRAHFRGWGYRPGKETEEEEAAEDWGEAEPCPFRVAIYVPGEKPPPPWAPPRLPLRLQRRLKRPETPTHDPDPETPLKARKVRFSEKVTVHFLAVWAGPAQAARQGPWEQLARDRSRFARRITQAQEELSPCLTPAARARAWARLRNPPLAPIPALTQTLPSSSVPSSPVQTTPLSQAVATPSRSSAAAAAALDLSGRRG
UniProt Q9BZL4: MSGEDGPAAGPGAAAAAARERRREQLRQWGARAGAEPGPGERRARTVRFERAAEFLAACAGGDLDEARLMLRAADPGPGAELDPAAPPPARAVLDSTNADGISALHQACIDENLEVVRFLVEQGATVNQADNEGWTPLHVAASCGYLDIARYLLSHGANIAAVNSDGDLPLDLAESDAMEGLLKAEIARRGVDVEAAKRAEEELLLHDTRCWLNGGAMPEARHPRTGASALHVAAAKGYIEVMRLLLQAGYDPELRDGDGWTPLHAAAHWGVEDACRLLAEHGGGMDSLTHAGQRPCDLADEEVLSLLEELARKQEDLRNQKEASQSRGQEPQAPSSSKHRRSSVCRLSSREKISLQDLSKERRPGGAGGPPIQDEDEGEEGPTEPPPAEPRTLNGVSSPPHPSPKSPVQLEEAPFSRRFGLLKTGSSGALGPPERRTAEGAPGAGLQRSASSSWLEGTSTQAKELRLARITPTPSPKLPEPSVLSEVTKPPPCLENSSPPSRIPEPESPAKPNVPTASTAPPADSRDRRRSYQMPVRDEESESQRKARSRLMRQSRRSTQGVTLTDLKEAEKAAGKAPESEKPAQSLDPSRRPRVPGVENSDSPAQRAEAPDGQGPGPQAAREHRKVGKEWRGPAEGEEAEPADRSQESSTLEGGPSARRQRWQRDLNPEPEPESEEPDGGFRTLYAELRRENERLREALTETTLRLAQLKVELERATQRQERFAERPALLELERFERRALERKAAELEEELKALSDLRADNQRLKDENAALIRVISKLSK
UniProt P14314: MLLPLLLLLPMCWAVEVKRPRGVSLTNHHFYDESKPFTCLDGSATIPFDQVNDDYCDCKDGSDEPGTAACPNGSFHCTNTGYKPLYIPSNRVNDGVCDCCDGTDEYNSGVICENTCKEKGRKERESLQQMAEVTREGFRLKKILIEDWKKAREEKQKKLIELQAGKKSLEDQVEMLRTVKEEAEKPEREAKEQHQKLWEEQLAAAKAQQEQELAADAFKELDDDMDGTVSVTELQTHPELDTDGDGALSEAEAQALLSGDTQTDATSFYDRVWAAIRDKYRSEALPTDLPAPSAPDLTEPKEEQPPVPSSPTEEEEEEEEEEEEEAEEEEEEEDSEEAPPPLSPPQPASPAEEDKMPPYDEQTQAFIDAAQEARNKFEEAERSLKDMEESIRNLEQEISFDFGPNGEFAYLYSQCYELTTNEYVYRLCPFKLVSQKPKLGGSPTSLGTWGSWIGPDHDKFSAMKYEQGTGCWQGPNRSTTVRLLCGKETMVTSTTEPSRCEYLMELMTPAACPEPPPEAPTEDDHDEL
UniProt P13727: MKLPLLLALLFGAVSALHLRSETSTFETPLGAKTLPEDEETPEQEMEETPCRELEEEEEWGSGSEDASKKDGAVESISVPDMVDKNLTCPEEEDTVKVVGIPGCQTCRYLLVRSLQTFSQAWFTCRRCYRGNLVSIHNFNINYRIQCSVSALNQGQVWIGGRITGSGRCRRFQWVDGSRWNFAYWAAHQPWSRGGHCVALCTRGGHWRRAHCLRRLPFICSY
UniProt Q2NL68: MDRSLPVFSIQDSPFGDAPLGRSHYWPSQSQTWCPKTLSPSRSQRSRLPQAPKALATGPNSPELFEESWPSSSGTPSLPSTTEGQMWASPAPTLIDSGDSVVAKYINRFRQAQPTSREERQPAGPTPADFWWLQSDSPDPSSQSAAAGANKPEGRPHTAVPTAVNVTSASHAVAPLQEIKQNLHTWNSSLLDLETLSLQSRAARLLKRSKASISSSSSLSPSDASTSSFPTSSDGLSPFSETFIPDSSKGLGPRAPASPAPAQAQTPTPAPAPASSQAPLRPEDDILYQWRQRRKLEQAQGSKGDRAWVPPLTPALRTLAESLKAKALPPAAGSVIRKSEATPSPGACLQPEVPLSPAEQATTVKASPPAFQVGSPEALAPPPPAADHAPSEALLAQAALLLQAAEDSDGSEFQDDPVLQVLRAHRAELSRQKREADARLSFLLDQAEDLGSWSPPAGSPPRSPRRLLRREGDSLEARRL

How the values were obtained:
Test in all cases: log2 fold change, soluble protein after heating vs DMSO (PISA); higher = thermal stabilisation; K562 cells, 10 uM, 30 min; active = over 0.2 and 3.5 SD of the protein, either way, in both replicates (recomputed)
[1] = compound: CC1=C(C=C(C=C1)NC(=O)C2=CC(=CC=C2)C(C)(C)C#N)NC3=CC4=C(C=C3)N=CN(C4=O)C
Outline: (§1)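 Values are thermal stability changes relative to control samples and are taken from duplicates. They are stated as log2 fold changes. Before quantification by TMTpro 16plex LC-MS/MS with equalised channel sums, K562 cells at 2×10^6 cells/mL were treated with 10 μM compound for 30 min, heated in aliquots for 3 min across 48°C-58°C, pooled, extracted in PBS with 0.5% NP-40 at 4°C, and centrifuged at 21,000xg for 90 min to give the soluble supernatant.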

[2] = compound: CC1=C(C=C(C=C1)NC(=O)C2=CC(=CC=C2)N(C)C)NC(=O)C3=CC=C(C=C3)O
Outline: as §1

[3] = compound: CC1=CC=C(C=C1)SC2=C3C=C(SC3=CN=C2)C(=O)N
Outline: as §1

[4] = compound: CC1=NC(=CC=C1)C2=C(N=C(N2)C(C)(C)C)C3=CC4=NC=CN=C4C=C3
Outline: as §1

Nexturastat A = compound: CCCCN(Cc1ccc(C(=O)NO)cc1)C(=O)Nc1ccccc1 [Nexturastat A]
Outline: as §1

vemurafenib = compound: CCCS(=O)(=O)Nc1ccc(F)c(C(=O)c2c[nH]c3ncc(-c4ccc(Cl)cc4)cc23)c1F [vemurafenib]
Outline: as §1

[5] = compound: CCCS(=O)(=O)Nc1ccc(F)c(C(=O)c2c[nH]c3ncc(Cl)cc23)c1F
Outline: as §1

[6] = compound: CCCc1cc(C)[nH]c(=O)c1CNC(=O)c1cc(-c2ccnc(N3CCN(C)CC3)c2)cc2c1cnn2C(C)C
Outline: as §1

givinostat = compound: CCN(CC)Cc1ccc2cc(COC(=O)Nc3ccc(C(=O)NO)cc3)ccc2c1 [givinostat]
Outline: as §1

barasertib = compound: CCN(CCCOc1ccc2c(Nc3cc(CC(=O)Nc4cccc(F)c4)[nH]n3)ncnc2c1)CCOP(=O)(O)O [barasertib]
Outline: as §1

[7] = compound: CC[C@@H]1C(=O)N(C)c2cnc(Nc3ccc(C(=O)NC4CCN(C)CC4)cc3OC)nc2N1C1CCCC1
Outline: as §1

volasertib = compound: CC[C@@H]1C(=O)N(C)c2cnc(Nc3ccc(C(=O)N[C@H]4CC[C@H](N5CCN(CC6CC6)CC5)CC4)cc3OC)nc2N1C(C)C [volasertib]
Outline: as §1

[8] = compound: CC[C@H](C)N1C=C(C2=C(C=C(C=C21)C3=CN=C(C=C3)N4CCNCC4)C(=O)NCC5=C(C=C(NC5=O)C)C)C
Outline: as §1

epoxomicin = compound: CC[C@H](C)[C@@H](C(=O)N[C@@H]([C@@H](C)O)C(=O)N[C@@H](CC(C)C)C(=O)[C@]1(CO1)C)NC(=O)[C@H]([C@@H](C)CC)N(C)C(=O)C [epoxomicin]
Outline: as §1

[9] = compound: CCn1cc(-c2ccnc3[nH]c(-c4cccc(CN(C)C)c4)cc23)c(-c2ccc(NC(=O)N(C)C)cc2)n1
Outline: as §1

[10] = compound: CN(C)CC(=O)Nc1ccc2[nH]c(=O)c3ccccc3c2c1
Outline: as §1

[11] = compound: CN1C2=C(C3=C1C(=O)N(N=C3)CC4=CC(=CC=C4)N)SC(=C2)S(=O)C
Outline: as §1

[12] = compound: CN1CCC(CNc2ccc3ncc(-c4cccc(OC(F)(F)F)c4)n3n2)CC1
Outline: as §1

[13] = compound: CCn1c(C(=O)N(C2CC2)C2CC2)cc2c3c(ncn3C)c(Nc3cc(C)n(C)n3)nc21
Outline: as §1

rosiglitazone = compound: CN(CCOC1=CC=C(C=C1)C[C@H]2C(=O)NC(=O)S2)C3=CC=CC=N3 (racemic) [rosiglitazone]
Outline: as §1

PPP6R1 (UniProt Q9UPN7)
log2 fold change [1]: inactive: 0.014
log2 fold change [2]: inactive: 0.023
log2 fold change [3]: inactive: 0.022
log2 fold change [4]: inactive: 0.036
log2 fold change (Nexturastat A): inactive: -0.1
log2 fold change (vemurafenib): inactive: 0.08
log2 fold change [5]: inactive: 0.018
log2 fold change [6]: inactive: -0.001
log2 fold change (givinostat): inactive: -0.018
log2 fold change (barasertib): inactive: -0.025
log2 fold change [7]: inactive: -0.098
log2 fold change (volasertib): active: -0.297
log2 fold change [8]: inactive: 0
log2 fold change (epoxomicin): inactive: -0.033
log2 fold change [9]: inactive: 0.026
log2 fold change [10]: inactive: 0.053
log2 fold change [11]: inactive: -0.007
log2 fold change [12]: inactive: -0.048

PRKAR1A (UniProt P10644)
log2 fold change [1]: inactive: 0.15
log2 fold change [2]: inactive: -0.051
log2 fold change [3]: inactive: 0.059
log2 fold change [4]: inactive: -0.103
log2 fold change (Nexturastat A): inactive: 0.053
log2 fold change (vemurafenib): inactive: -0.028
log2 fold change [5]: inactive: -0.085
log2 fold change [6]: inactive: 0.203
log2 fold change (givinostat): inactive: 0.055
log2 fold change (barasertib): inactive: -0.01
log2 fold change [7]: inactive: 0.213
log2 fold change (volasertib): inactive: -0.054
log2 fold change [8]: inactive: -0.068
log2 fold change (epoxomicin): inactive: -0.122
log2 fold change [9]: inactive: 0.001
log2 fold change [10]: inactive: 0.023
log2 fold change [11]: inactive: 0.132
log2 fold change [12]: active: 0.705

PRKCA (UniProt P17252)
log2 fold change [1]: inactive: -0.014
log2 fold change [2]: inactive: -0.068
log2 fold change [3]: inactive: -0.016
log2 fold change [4]: inactive: 0.007
log2 fold change (Nexturastat A): inactive: 0.023
log2 fold change (vemurafenib): inactive: -0.015
log2 fold change [5]: inactive: 0.012
log2 fold change [6]: inactive: -0.021
log2 fold change (givinostat): inactive: -0.02
log2 fold change (barasertib): inactive: 0.025
log2 fold change [7]: inactive: 0.073
log2 fold change (volasertib): inactive: -0.179
log2 fold change [8]: inactive: 0.025
log2 fold change (epoxomicin): inactive: -0.018
log2 fold change [9]: inactive: 0
log2 fold change [10]: inactive: 0.017
log2 fold change [11]: inactive: -0.15
log2 fold change [12]: inactive: -0.29

PRKD2 isoform 3 (UniProt Q9BZL6)
log2 fold change [1]: inactive: 0.296
log2 fold change [2]: inactive: -0.26
log2 fold change [3]: inactive: 0.117
log2 fold change [4]: inactive: 0.028
log2 fold change (Nexturastat A): inactive: 0.006
log2 fold change (vemurafenib): inactive: 0.024
log2 fold change [5]: inactive: 0.058
log2 fold change [6]: inactive: 0.083
log2 fold change (givinostat): inactive: -0.009
log2 fold change (barasertib): inactive: 0.093
log2 fold change (volasertib): active: -0.674
log2 fold change [8]: inactive: 0.149
log2 fold change (epoxomicin): inactive: 0.049
log2 fold change [9]: inactive: -0.089
log2 fold change [10]: inactive: 0.042
log2 fold change [11]: inactive: 0.056
log2 fold change [12]: inactive: -0.316

PPP1CA (UniProt P62136)
log2 fold change [1]: inactive: -0.024
log2 fold change [2]: inactive: -0.019
log2 fold change [3]: inactive: -0.071
log2 fold change [4]: inactive: 0.164
log2 fold change (Nexturastat A): inactive: -0.09
log2 fold change (vemurafenib): inactive: -0.023
log2 fold change [5]: inactive: -0.05
log2 fold change [6]: inactive: 0
log2 fold change (givinostat): inactive: -0.009
log2 fold change (barasertib): inactive: 0.035
log2 fold change [7]: inactive: -0.014
log2 fold change (volasertib): inactive: -0.061
log2 fold change [8]: inactive: 0.003
log2 fold change (epoxomicin): inactive: 0.02
log2 fold change [9]: inactive: -0.041
log2 fold change [10]: inactive: -0.033
log2 fold change [11]: inactive: -0.077
log2 fold change [12]: inactive: 0.011

PRKD3 (UniProt O94806)
log2 fold change [1]: inactive: 0.096
log2 fold change [2]: inactive: -0.052
log2 fold change [4]: inactive: -0.012
log2 fold change (vemurafenib): inactive: 0.294
log2 fold change [6]: inactive: 0.115
log2 fold change (givinostat): inactive: -0.008
log2 fold change (barasertib): inactive: 0.086
log2 fold change [9]: inactive: -0.125
log2 fold change [10]: inactive: 0.059
log2 fold change [11]: inactive: -0.002
log2 fold change [12]: inactive: -0.418

PRIMPOL (UniProt Q96LW4)
log2 fold change [1]: inactive: 0.007
log2 fold change [3]: inactive: 0.115
log2 fold change [5]: inactive: 0.043
log2 fold change (volasertib): inactive: -0.217
log2 fold change [11]: inactive: 0.032

PRPH isoform 2 (UniProt P41219)
log2 fold change [1]: inactive: -0.076
log2 fold change [2]: inactive: 0.033
log2 fold change [3]: inactive: -0.052
log2 fold change [4]: inactive: -0.278
log2 fold change (vemurafenib): inactive: -0.082
log2 fold change [5]: inactive: -0.01
log2 fold change [6]: inactive: 0.053
log2 fold change (givinostat): inactive: 0.045
log2 fold change (barasertib): inactive: -0.035
log2 fold change [7]: inactive: 0.096
log2 fold change (volasertib): inactive: 0.249
log2 fold change [8]: inactive: -0.051
log2 fold change [13]: inactive: -0.171
log2 fold change [9]: inactive: 0.289
log2 fold change [10]: inactive: -0.076
log2 fold change (rosiglitazone): inactive: -0.18
log2 fold change [11]: inactive: 0.492
log2 fold change [12]: inactive: 0.215

PROSER1 (UniProt Q86XN7)
log2 fold change [1]: inactive: 0.067
log2 fold change [2]: inactive: 0.192
log2 fold change [3]: inactive: -0.034
log2 fold change [5]: inactive: 0.071
log2 fold change (volasertib): inactive: -0.072

PPP1R15A (UniProt O75807)
log2 fold change [1]: inactive: -0.534
log2 fold change [3]: inactive: -0.16
log2 fold change [4]: inactive: 0.061
log2 fold change (Nexturastat A): inactive: 0.225
log2 fold change [5]: inactive: -0.289
log2 fold change (givinostat): inactive: 0.215
log2 fold change (volasertib): inactive: 0.134
log2 fold change (epoxomicin): inactive: -0.027
log2 fold change [13]: inactive: 0.02

PPP1R12C (UniProt Q9BZL4)
log2 fold change [1]: inactive: -0.048
log2 fold change [2]: inactive: 0.027
log2 fold change [3]: inactive: 0.124
log2 fold change (Nexturastat A): inactive: 0.154
log2 fold change (vemurafenib): inactive: -0.023
log2 fold change [5]: inactive: 0.265
log2 fold change [6]: inactive: 0.04
log2 fold change (givinostat): inactive: 0.089
log2 fold change (barasertib): inactive: 0.112
log2 fold change [7]: inactive: 0.029
log2 fold change (volasertib): inactive: -0.027
log2 fold change [8]: inactive: 0.204
log2 fold change (epoxomicin): inactive: -0.102
log2 fold change [9]: inactive: -0.116
log2 fold change [10]: inactive: -0.03
log2 fold change [11]: inactive: 0.013
log2 fold change [12]: inactive: 0.029

PRKCSH isoform 2 (UniProt P14314)
log2 fold change [2]: inactive: -0.185
log2 fold change [4]: inactive: 0.057
log2 fold change (Nexturastat A): inactive: 0.049
log2 fold change (vemurafenib): inactive: 0
log2 fold change [6]: inactive: -0.498
log2 fold change (givinostat): inactive: 0.045
log2 fold change (barasertib): inactive: 0.013
log2 fold change [7]: inactive: -0.06
log2 fold change [8]: inactive: -0.052
log2 fold change (epoxomicin): inactive: 0.006
log2 fold change [13]: inactive: 0.01
log2 fold change [9]: inactive: -0.075
log2 fold change [10]: inactive: -0.017
log2 fold change (rosiglitazone): inactive: -0.009
log2 fold change [11]: inactive: 0.027
log2 fold change [12]: inactive: 0.052

PRG2 (UniProt P13727)
log2 fold change [3]: inactive: -0.116
log2 fold change [4]: inactive: -0.082
log2 fold change (Nexturastat A): inactive: -0.038
log2 fold change (vemurafenib): inactive: 0.033
log2 fold change [5]: inactive: -0.037
log2 fold change [6]: inactive: 0.119
log2 fold change (givinostat): inactive: -0.027
log2 fold change [7]: inactive: 0.154
log2 fold change (volasertib): inactive: 0.161
log2 fold change (epoxomicin): inactive: -0.128
log2 fold change [13]: inactive: 0.048
log2 fold change [10]: inactive: -0.14
log2 fold change [11]: inactive: 0.041

PROSER3 (UniProt Q2NL68)
log2 fold change [3]: inactive: -0.125
log2 fold change [5]: inactive: 0.013
log2 fold change (givinostat): inactive: 0.144
log2 fold change (barasertib): inactive: 0.229
log2 fold change (volasertib): inactive: -0.108
log2 fold change [8]: inactive: -0.012
log2 fold change [13]: inactive: 0.011
log2 fold change (rosiglitazone): inactive: -0.064
log2 fold change [11]: inactive: 0.222
